Chains of the proteins cited; added tags and fusions are not shown.
UniProt Q0JBA9, entry or part of it: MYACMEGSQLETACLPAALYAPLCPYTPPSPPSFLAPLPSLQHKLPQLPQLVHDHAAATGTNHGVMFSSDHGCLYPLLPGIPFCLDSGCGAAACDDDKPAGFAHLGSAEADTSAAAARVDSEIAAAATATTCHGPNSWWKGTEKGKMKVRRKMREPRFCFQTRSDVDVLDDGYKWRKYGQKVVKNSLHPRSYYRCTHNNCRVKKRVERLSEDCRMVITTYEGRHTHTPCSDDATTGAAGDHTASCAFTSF

Some of the results follow.
Each sequence was assayed against OsWRKY34 (Oryza sativa, UniProt Q0JBA9 1-250) (assay: protein-binding microarray (RPBM); PBS, 2% BSA, 51.3 ng/ul salmon testes DNA, 50 uM zinc acetate, 200 nM TF, 25 C, 1 h; high values mean tight binding). Conditions: protein: recombinant; tags: N-terminal polyhistidine and DsRed monomer fusion (pET32a); label: CyDye5-dUTP incorporated in the synthesized complementary strand; 3' TTTTT single-stranded linker to array surface; dsDNA, one strand shown.
Method in brief: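 Ni–NTA purification followed expression in E. coli BL21-CodonPlus of transcription factors fused N-terminally to a polyhistidine tag and DsRed. At 200 nM in PBS with 2% BSA, salmon testes DNA and 50 µM zinc acetate, the protein was incubated for 1 h at 25 °C with a custom Agilent array that had been primer-extended with Cy5-dUTP and blocked with 2% BSA. After washing, the array was read on an Axon 4000B scanner. The binding signal is per-feature fluorescence intensity in arbitrary units.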
With “TTCTTCTCTCGTCTCTAGGCCTCTCCAACCCCGAGCTCGCCGGAGTCACCTAGTGCAG” the binding signal was 11000 fluorescence intensity (a.u.).
With “CCGCGCCTGCGCCACCACCACCACCGTTCGTCCGCTCGCCCGGAGTCACCTAGTGCAG” the binding signal was 8780 fluorescence intensity (a.u.).
“AAAAACTCCTATGTTTTTTCTTTCTATGGTTTTCCAACACCGGAGTCACCTAGTGCAG” was tested, and the binding signal was 8910 fluorescence intensity (a.u.).
“ATCTCCTCCTCATTCGATTCGACGCAACAGTCGCACTATTCGGAGTCACCTAGTGCAG” was tested, and the binding signal was 8760 fluorescence intensity (a.u.).
For “TTTAGCGCACTCATCTTTTTTTTTTTCAACGCTTAACTGTCGGAGTCACCTAGTGCAG”, the binding signal was 9680 fluorescence intensity (a.u.).
In the case of “CCCTCTCGTTCTTTCTCGCCTCTCTCTCTCTCTCGCCTCTCGGAGTCACCTAGTGCAG”, the binding signal is reported as 8560 fluorescence intensity (a.u.).
“GAGTATCTTTGCCCCTGCTTCTGCTGCCCAATGTGTTCCTCGGAGTCACCTAGTGCAG” was tested, and the binding signal was 9510 fluorescence intensity (a.u.).
“TCTCCTCTCTCTCTCTTCTTCCCGGGGAGGCGGGGAGCGGCGGAGTCACCTAGTGCAG” was tested, and the binding signal was 11700 fluorescence intensity (a.u.).
For “TCCTCAGAATTGACCAAGCTGTGCTCCTACCATTTCACATCGGAGTCACCTAGTGCAG”, the binding signal was 9130 fluorescence intensity (a.u.).
For “AAGAATTGCGAATCTTTCCTGTCCGAATCTAGCGGAATATCGGAGTCACCTAGTGCAG”, the binding signal was 8180 fluorescence intensity (a.u.).
For “CGTCTCGTCTCGCACTCTCGCATCGTCTTCTCCTTCCTCCCGGAGTCACCTAGTGCAG”, the binding signal was 9220 fluorescence intensity (a.u.).
In the case of “TACTGAACTGAAGTATGTCATGTTGCTTTCCTTAATTTCACGGAGTCACCTAGTGCAG”, the binding signal is reported as 8260 fluorescence intensity (a.u.).
In the case of “TATTGTTTTCTCTACCCCTTTTGCTGAGTTATTAACCTTTCGGAGTCACCTAGTGCAG”, the binding signal is reported as 10100 fluorescence intensity (a.u.).
For “GTTTGCATTTTTAGGGAGTAAAACCTTACGTGGTTAGAAACGGAGTCACCTAGTGCAG”, the binding signal was 10400 fluorescence intensity (a.u.).
In the case of “ACGATGCGGGACGTGGGGTGGGATCGAAAGCAAGAAAGTTCGGAGTCACCTAGTGCAG”, the binding signal is reported as 10800 fluorescence intensity (a.u.).
“TACTCATGTACTAGTACCCAACCCCACCAGAATACGCAACCGGAGTCACCTAGTGCAG” was tested, and the binding signal was 9110 fluorescence intensity (a.u.).
With “TTCTCATCTCCACTTTCCTAACTCACATATCTCGTTTTCCCGGAGTCACCTAGTGCAG” the binding signal was 8260 fluorescence intensity (a.u.).
In the case of “GTCATATGATTTCCACGTGTCATTAACCTATGAAAGTGTGCGGAGTCACCTAGTGCAG”, the binding signal is reported as 8510 fluorescence intensity (a.u.).
In the case of “CCCCACCCACACGGCCACACCACCCGATCCACGTGCCTCGCGGAGTCACCTAGTGCAG”, the binding signal is reported as 8510 fluorescence intensity (a.u.).
In the case of “TCTTAGATACCGTATTTGTCCGTCAGTTACGTCTTTTGCTCGGAGTCACCTAGTGCAG”, the binding signal is reported as 9740 fluorescence intensity (a.u.).
With “TGTTTTATACTCCTCCGTCCCATTTTAAGTGCAAACATAACGGAGTCACCTAGTGCAG” the binding signal was 8960 fluorescence intensity (a.u.).
In the case of “TATTGTTGCAGCTGCCTGCGCCTTCATCTCCTCCCACTTGCGGAGTCACCTAGTGCAG”, the binding signal is reported as 10300 fluorescence intensity (a.u.).
In the case of “TCTTACATATAGTTTTAAGGTGTGTTTGGTTGTTGGCCACCGGAGTCACCTAGTGCAG”, the binding signal is reported as 8180 fluorescence intensity (a.u.).
“CTCTTTGCGTTACTACCTTTTCCTTTTCCTTCTTTCTTCGCGGAGTCACCTAGTGCAG” was tested, and the binding signal was 9710 fluorescence intensity (a.u.).
“ATGTTTTTATGCTGCATTCCCCATGTGTGTTTCCTTCTAACGGAGTCACCTAGTGCAG” was tested, and the binding signal was 19600 fluorescence intensity (a.u.).
For “GCATCACACACTCGTCAGCAACACGTCTTACATATTTCACCGGAGTCACCTAGTGCAG”, the binding signal was 10100 fluorescence intensity (a.u.).
In the case of “CATCATCACCACTGCTTCTCCCATGTCTCCATGTTCTGTGCGGAGTCACCTAGTGCAG”, the binding signal is reported as 9640 fluorescence intensity (a.u.).
With “AACAAAAGTTGTTTTGACTCACGCGGTGGCTGTTGTCTGTCGGAGTCACCTAGTGCAG” the binding signal was 8550 fluorescence intensity (a.u.).
In the case of “CAAGCAACCCCTGTCTAGCTTCCTCTACCATCCCTTATATCGGAGTCACCTAGTGCAG”, the binding signal is reported as 9900 fluorescence intensity (a.u.).
For “CGAGCTAATTATCGCCATCGCCCGCCGCGATCTATATAAACGGAGTCACCTAGTGCAG”, the binding signal was 8480 fluorescence intensity (a.u.).
For “TTTCACAATTCATTCTCAGTACTCAAATCTGGTCAAACAACGGAGTCACCTAGTGCAG”, the binding signal was 8200 fluorescence intensity (a.u.).
“CACGTGTTGACCAGACCTGACACAAACTCACATTCATTACCGGAGTCACCTAGTGCAG” was tested, and the binding signal was 9210 fluorescence intensity (a.u.).
In the case of “CTGCTCTTTCTTCTCTCTGCATTCCATTTCATTACTGCCTCGGAGTCACCTAGTGCAG”, the binding signal is reported as 11000 fluorescence intensity (a.u.).
For “CCGTTTTTTTTTTCTTCAACCAAAACTACTGCAATTATTACGGAGTCACCTAGTGCAG”, the binding signal was 8460 fluorescence intensity (a.u.).
“AGTAAATACTAACCGTGAAGTACAGTCAACTGTGTGTTGACGGAGTCACCTAGTGCAG” was tested, and the binding signal was 8820 fluorescence intensity (a.u.).
“CCCTTACCCGCCTTATCTTCCACATCCGAGGATTTCTCTCCGGAGTCACCTAGTGCAG” was tested, and the binding signal was 12800 fluorescence intensity (a.u.).
With “ATTTTTAAAAGTATACTTTTGCCTTTCGATACCTTAATTCCGGAGTCACCTAGTGCAG” the binding signal was 9300 fluorescence intensity (a.u.).
In the case of “CACCGTCACCGCCGCCGCTCATGTCGACGCGGTCCAAGTCCGGAGTCACCTAGTGCAG”, the binding signal is reported as 11200 fluorescence intensity (a.u.).
In the case of “GCCGGCGACAAGATACGCGAGTACGCCTCGCGCCGCGCCGCGGAGTCACCTAGTGCAG”, the binding signal is reported as 8370 fluorescence intensity (a.u.).
In the case of “CCACCACACGCATCACCCGCCCGCCACCCACTCGCGACCCCGGAGTCACCTAGTGCAG”, the binding signal is reported as 11700 fluorescence intensity (a.u.).
With “CTTGGCTTGGCTCGCCTTCTTGTTTGTGTGGCGGGGAGGACGGAGTCACCTAGTGCAG” the binding signal was 13100 fluorescence intensity (a.u.).
With “TTTTTGAGTTTTTTCATGGGTGGTTTGTGTCTCGTACGATCGGAGTCACCTAGTGCAG” the binding signal was 8660 fluorescence intensity (a.u.).

— publication PMC7819943, “Rice protein-binding microarrays: a tool to detect cis-acting elements near promoter regions in rice”
